This experiment deals with T1, eGFP-IRF3 fusion protein (full-length IRF3) (UniProt Q14653).
T1 sequence: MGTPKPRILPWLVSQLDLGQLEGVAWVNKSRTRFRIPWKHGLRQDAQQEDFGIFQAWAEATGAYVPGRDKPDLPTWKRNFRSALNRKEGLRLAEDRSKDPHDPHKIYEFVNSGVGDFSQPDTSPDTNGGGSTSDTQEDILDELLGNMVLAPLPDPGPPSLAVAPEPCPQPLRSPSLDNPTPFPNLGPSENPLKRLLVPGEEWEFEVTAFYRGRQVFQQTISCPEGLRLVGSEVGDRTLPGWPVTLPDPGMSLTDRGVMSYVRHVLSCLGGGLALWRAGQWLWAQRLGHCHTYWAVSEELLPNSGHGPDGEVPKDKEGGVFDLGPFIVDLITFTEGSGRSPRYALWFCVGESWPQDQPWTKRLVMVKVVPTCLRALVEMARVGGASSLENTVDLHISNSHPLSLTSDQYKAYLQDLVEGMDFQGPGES
The experiment is described as follows: co-IP.

Protein sequences, listed by entry. Tags and fused reporters are not part of them.
UniProt P21698: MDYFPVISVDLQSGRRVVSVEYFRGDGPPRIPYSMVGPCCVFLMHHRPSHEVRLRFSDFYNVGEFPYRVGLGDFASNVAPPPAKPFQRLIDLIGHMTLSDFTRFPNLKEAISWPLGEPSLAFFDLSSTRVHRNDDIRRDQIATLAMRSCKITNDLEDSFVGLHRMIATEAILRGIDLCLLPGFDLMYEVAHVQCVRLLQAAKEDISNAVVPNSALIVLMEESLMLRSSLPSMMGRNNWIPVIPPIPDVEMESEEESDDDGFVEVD

No constants are given. Whether binding was seen depends on the method and setting. In cells and extracts the contact can be indirect. Sequences can lack the tags named with a protein.

The values that follow come from paper PMC6232482.

Turning to “3×FLAG-tagged NSs of Rift Valley fever virus (RVFV) (from UniProt P21698 1-265)”, the binding result was “no binding”.
